Measurements reported in PubChem BioAssay AID2685 (National Center for Advancing Translational Sciences (NCATS), 2010).
The other results are listed elsewhere or left out. These are further read-outs of the screen, such as a control signal, another cell line or another target. No call is given for them. Compounds called inactive in the main read-out are mostly missing here. Words in brackets tell the shape of the fitted curve; partial curves, single points and poor fits give uncertain potencies.

Assay: qHTS Assay for Lipid Storage Modulators in Drosophila S3 Cells;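 as to cell number change: cells counted by Cell Tracker Red CMTPX staining in the red channel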
Conditions: BODIPY lipid droplet fluorescence, 18-24 h; for cell number change: measured here: cell count max response, cells fed with added oleic acid
Method in brief: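 Laser-scanning cytometry quantifies lipid droplet accumulation (500–530 nm total intensity; droplet/cell object ratio) in oleic acid-fed (400 uM added) Drosophila S3 cells treated with a concentration series. 20 uM Triacsin C defined 100% inhibition.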

[1] = measured here: lipid fluorescence (Fed channel) AC50, cells fed with added oleic acid
[2] = measured here: cell number channel AC50, cells fed with added oleic acid

Compound	cell number change	AC50 [1]	AC50 [2]
Cn1c(CCNC(=O)c2cccs2)nnc1SCC(=O)N1CCN(c2ccccc2)CC1	-11.7%	–	–
CCC(CC)NCc1ccc(OC)cc1OC	-63.7%	–	–
CC1(C)C(=O)OC(c2ccccc2)C(C)(C)C1=O (configuration not stated)	-10.6%	0.651 µM [falling, partial curve, poor fit]	–
COCCCNC(=O)c1ccc2nc3ccccc3c(=O)n2c1	–	3.26 µM [rising, partial curve]	4.11 µM [rising, single point]
N#Cc1ccccc1S(=O)(=O)N1CCN(C(=O)c2cc(-c3ccccc3)nn2-c2ccccc2)CC1	–	29.1 µM [falling, single point]	–
C=Cn1cc[n+](CC(=O)c2ccc(Cl)c(Cl)c2)c1	10.9%	6.51 µM [rising, partial curve]	–
O=C(Nc1ccc2nn(-c3ccccc3)nc2c1)c1ccc(Br)o1	–	–	2.31 µM [rising, partial curve]
COc1cc(C(=O)Nc2cccc(-n3cnnn3)c2)cc(Cl)c1OC	–	8.2 µM [falling, partial curve]	–
Nc1c(-c2n[nH]c(=S)n2-c2ccc(Cl)cc2Cl)cnn1-c1ccccc1	51.4%	–	4.61 µM [rising, full curve, poor fit]
O=C(c1cc(F)ccc1F)N1CCC(N2CCC(C(=O)N3CCCC3)CC2)CC1	17.2%	0.58 µM [rising, single point]	–
COc1ccc(CCNC(=O)Cn2nnc(-c3ccc(N(C)C)cc3)n2)cc1OC	-76.5%	3.66 µM [falling, full curve]	5.8 µM [falling, partial curve]
CCC(C)(C(=O)NC1CCCCC1)N(C(=O)C1CCC(=O)N1)c1ccc(C)cc1 (configuration not stated)	-5.61%	–	–
Cc1cc(SCC(=O)Nc2cccc(S(=O)(=O)N3CCOCC3)c2)nc2ccccc12	8.85%	0.92 µM [rising, single point]	–
CCOc1ccc(OCC(=O)Nc2nccs2)cc1	-45.2%	2.91 µM [falling, partial curve]	1.84 µM [falling, partial curve]
CN(C(=O)COC(=O)c1ccc(S(=O)(=O)N2CCOCC2)cc1)C1CCCCC1	17.5%	0.231 µM [rising, full curve]	–
CCOCCCNC(=O)Cn1cc2c(n1)CCCCC2	-49.9%	25.9 µM [falling, partial curve, poor fit]	20.6 µM [falling, partial curve, poor fit]
CC(=O)c1c(C)[nH]c(C(=O)OCC(=O)Nc2ccc(Cl)cc2[N+](=O)[O-])c1C	-32.1%	8.2 µM [falling, partial curve]	16.4 µM [falling, single point]
COC(=O)c1sc(NC(=O)c2cccc([N+](=O)[O-])c2)c(C(N)=O)c1C	19.6%	3.66 µM [rising, partial curve, poor fit]	–
CCCCN(CCCC)c1ccc(C(=O)c2ccccc2C(=O)O)c(O)c1	-20.3%	8.2 µM [falling, partial curve]	–
O=C(COC(=O)c1ccc(S(=O)(=O)Nc2ccccc2)cc1)NCc1ccco1	-40.3%	–	9.2 µM [falling, partial curve]

An excerpt from above, showing only AC50 [1].
Compound	AC50 [1]
CC1(C)C(=O)OC(c2ccccc2)C(C)(C)C1=O (configuration not stated)	0.651 µM [falling, partial curve, poor fit]
C=Cn1cc[n+](CC(=O)c2ccc(Cl)c(Cl)c2)c1	6.51 µM [rising, partial curve]
COc1ccc(CCNC(=O)Cn2nnc(-c3ccc(N(C)C)cc3)n2)cc1OC	3.66 µM [falling, full curve]
CCCCN(CCCC)c1ccc(C(=O)c2ccccc2C(=O)O)c(O)c1	8.2 µM [falling, partial curve]

Following part

Compound	cell number change	AC50 [1]	AC50 [2]
CCN1CCN(C(=O)CN(CC)S(=O)(=O)c2ccc3ccccc3c2)CC1	1.72%	6.51 µM [rising, single point]	–
CC1CC(C)CN(C(=O)c2ccc3c(c2)N(Cc2ccccc2)CCS3)C1 (configuration not stated)	-1.11%	6.51 µM [rising, single point]	–
CN(C)S(=O)(=O)c1ccc(C(=O)NCCN=C2NS(=O)(=O)c3ccccc32)cc1	14.4%	–	–
Cc1cccc(Cn2cnc3c(NS(C)(=O)=O)c(C)c(C)cc32)c1	97.2%	–	–
CCCCN=C(Nc1ccc(Cl)cc1)c1cccnc1	96.2%	23.1 µM [rising, partial curve]	18.4 µM [rising, partial curve, poor fit]
CCCCc1cc2c(c(NC(C)=O)n1)c(=O)oc1ccccc12	0.854%	–	–
O=c1ccc(-c2ccccc2)no1	9.96%	0.517 µM [falling, single point]	–
COc1ccc(NS(=O)(=O)c2ccc3oc(=O)c4[nH]c(=O)c(=O)n(C)c4c3c2)cc1	-10.2%	–	–
COc1ccc2cc3cc(C(=O)N4CCN(Cc5ccc6c(c5)OCO6)CC4)oc3nc2c1	-15.3%	0.0651 µM [falling, full curve, poor fit]	–
CS(=O)(=O)N1CCC(C(=O)Nc2ccccc2)CC1	18%	29.1 µM [falling, single point]	–
N#C/C(C(=O)NCc1ccco1)=C1/SC(Cc2ccc(F)cc2)C(=O)N1c1ccccc1 (configuration not stated)	–	3.66 µM [rising, partial curve]	3.26 µM [rising, single point]
CCCCOC(=O)c1nc[nH]c1C(=O)OCCCC	133%	29.1 µM [rising, single point]	29.1 µM [rising, single point]
CCOC(=O)c1ccc(NS(=O)(=O)c2ccc(SC)cc2)cc1	-64.1%	0.651 µM [falling, full curve, poor fit]	16.4 µM [falling, partial curve]
COCC(=O)N1CCN(c2cccc(C(F)(F)F)c2)CC1	–	–	2.06 µM [rising, partial curve, poor fit]
CCOC(=O)c1cn(Cc2c(C)c(C)c(C)c(C)c2C)nn1	-31.4%	5.8 µM [falling, partial curve, poor fit]	2.06 µM [falling, full curve, poor fit]
Cc1ccc(C)n1-c1ccc(C#N)cn1	-33.3%	18.4 µM [falling, single point]	18.4 µM [falling, single point]
O=Cc1cn(CCOc2ccccc2F)c2ccccc12	–	2.91 µM [falling, single point]	–
NC(=O)C1CCN(c2nc(-c3ccc4ccccc4c3)cs2)CC1	3.73%	25.9 µM [rising, partial curve, poor fit]	–
CC(C)NC(=O)CSc1nnc(-c2ccc(S(=O)(=O)N3CCCC3)cc2)n1CC1CCCO1 (configuration not stated)	-18.9%	16.4 µM [falling, partial curve, poor fit]	–
C[C@]12CCC(=O)C[C@@H]1CC[C@@H]1[C@@H]2CC[C@]2(C)C=CC[C@@H]12	-30.6%	0.92 µM [falling, full curve, poor fit]	0.92 µM [falling, full curve, poor fit]

Compound	cell number change	AC50 [1]	AC50 [2]
Cc1nc(Nc2ccc(S(=O)(=O)N3CCCCC3C)cc2)c2nnn(Cc3ccccc3)c2n1 (configuration not stated)	-6.87%	29.1 µM [falling, single point]	–
CCN(CC)S(=O)(=O)c1ccc(N2CCc3cc(OC)c(OC)cc3C2)nc1	3.17%	6.51 µM [rising, single point]	–
Cc1ccc(SCc2[nH]nc3c2C2(C(=O)Nc4ccc([N+](=O)[O-])cc42)C(C#N)=C(N)O3)cc1 (configuration not stated)	-23.7%	13 µM [falling, partial curve]	–
N/C(=N\OC(=O)COc1ccccc1Cl)c1ccccn1	-1.84%	3.26 µM [rising, partial curve]	–
Nc1ccc2nc(COc3ccccc3)[nH]c2c1	-15.7%	0.00461 µM [rising, full curve, poor fit]	–
O=C(c1ccco1)N1CCN(C(=O)C2CC(c3ccc(Cl)c(Cl)c3)=NO2)CC1 (configuration not stated)	1.42%	–	–
COc1cc(C(=O)NCc2ccc(S(N)(=O)=O)cc2)ccc1OCC(=O)N1CCOCC1	6.43%	–	–
COc1ccc(NC(=O)c2ccc(Cl)c(S(=O)(=O)N3CC(C)OC(C)C3)c2)cn1 (configuration not stated)	-0.139%	–	4.11 µM [rising, single point]
CCc1cccc(C)c1NC(=O)c1ccc2nc(N3CCOCC3)sc2c1	14.4%	8.2 µM [rising, partial curve]	–
Cc1cc(O)ccc1N/C=C(\C#N)c1nc2ccccc2o1	-34.4%	29.1 µM [falling, single point]	29.1 µM [falling, single point]
O=C(O)c1ccc(NC(=O)c2cn(-c3ccccc3)nc2-c2ccc(Br)cc2)cc1	-13%	0.651 µM [rising, partial curve]	1.16 µM [rising, single point]
CCCn1c(SCC(=O)Nc2ccc(Cl)cn2)nnc1C1CC1	-14.6%	0.58 µM [rising, partial curve, poor fit]	–
O=C(NCc1ccccn1)c1ccc(OC2CCN(Cc3ccc(CO)o3)CC2)cc1	11.7%	0.366 µM [falling, full curve]	–
O=C(CN1CCC(n2nnc3cc(F)ccc32)CC1)N1CCCc2ccccc21	-0.688%	29.1 µM [falling, single point]	–
CCN(Cc1ccccc1)C(c1cccs1)c1nnnn1C1CCCCC1 (configuration not stated)	-17.7%	–	–
Cc1c(-c2nc(N)nc(Nc3ccccc3F)n2)oc2ccccc12	-11.1%	0.146 µM [rising, full curve, poor fit]	–
COc1ccc([N+](=O)[O-])cc1NC(=O)c1cc(C)c(C)o1	–	0.92 µM [rising, full curve, poor fit]	–
O=C(NCCSCc1ccco1)c1ccc(CN2CCOCC2)cc1	-5.8%	0.058 µM [falling, full curve, poor fit]	–
